Reference: publication PMC8898363
No constants are given. Whether binding was seen depends on the method and setting. In cells and extracts the contact can be indirect. Some results given as binding are weak or reduced against the parent protein; the word gives no strength.

By UniProt entry, the sequences of proteins in these tests, tags left out.
UniProt P57790: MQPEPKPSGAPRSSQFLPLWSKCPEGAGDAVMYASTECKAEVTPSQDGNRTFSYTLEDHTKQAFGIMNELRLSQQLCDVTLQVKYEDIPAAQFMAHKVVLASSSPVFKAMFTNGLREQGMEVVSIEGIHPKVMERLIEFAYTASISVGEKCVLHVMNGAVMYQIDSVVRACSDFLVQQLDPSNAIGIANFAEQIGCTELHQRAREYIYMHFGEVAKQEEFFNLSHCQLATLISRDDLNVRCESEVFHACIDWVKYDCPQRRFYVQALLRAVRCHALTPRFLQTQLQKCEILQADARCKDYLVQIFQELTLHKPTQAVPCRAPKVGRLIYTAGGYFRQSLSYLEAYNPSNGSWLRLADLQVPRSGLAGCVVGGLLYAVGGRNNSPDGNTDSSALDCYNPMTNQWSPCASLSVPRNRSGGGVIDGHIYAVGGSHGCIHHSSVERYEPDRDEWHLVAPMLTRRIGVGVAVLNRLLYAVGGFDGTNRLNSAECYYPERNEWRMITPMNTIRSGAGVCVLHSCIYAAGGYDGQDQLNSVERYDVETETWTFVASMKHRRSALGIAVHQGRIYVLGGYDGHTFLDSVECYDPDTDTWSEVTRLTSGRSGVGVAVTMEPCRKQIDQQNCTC
UniProt B5DF89: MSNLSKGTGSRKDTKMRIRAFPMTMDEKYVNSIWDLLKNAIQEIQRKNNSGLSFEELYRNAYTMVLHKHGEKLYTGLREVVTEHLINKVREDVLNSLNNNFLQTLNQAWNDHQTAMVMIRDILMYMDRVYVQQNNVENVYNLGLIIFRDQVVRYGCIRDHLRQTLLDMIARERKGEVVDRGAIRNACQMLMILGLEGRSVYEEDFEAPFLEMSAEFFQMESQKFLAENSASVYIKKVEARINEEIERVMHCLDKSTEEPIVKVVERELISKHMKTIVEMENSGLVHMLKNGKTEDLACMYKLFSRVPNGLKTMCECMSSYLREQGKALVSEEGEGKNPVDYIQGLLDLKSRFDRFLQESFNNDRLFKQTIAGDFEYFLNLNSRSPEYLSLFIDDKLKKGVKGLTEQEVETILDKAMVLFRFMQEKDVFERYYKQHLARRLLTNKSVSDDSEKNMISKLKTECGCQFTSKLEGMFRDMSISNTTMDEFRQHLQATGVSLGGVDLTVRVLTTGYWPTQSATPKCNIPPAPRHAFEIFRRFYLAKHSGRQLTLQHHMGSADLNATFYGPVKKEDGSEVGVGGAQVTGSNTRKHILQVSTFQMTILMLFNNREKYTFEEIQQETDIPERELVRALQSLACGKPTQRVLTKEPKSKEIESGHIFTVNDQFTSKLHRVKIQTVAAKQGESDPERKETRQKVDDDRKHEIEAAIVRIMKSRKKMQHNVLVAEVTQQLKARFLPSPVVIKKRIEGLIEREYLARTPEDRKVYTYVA

Biological target: Keap1 (rat (endogenous in adult rat cardiomyocytes)) (UniProt P57790)
Experiment: co-IP; adult rat cardiomyocytes, normal or with Notch1 over-expression (interaction impaired) or RBP-Jκ over-expression (interaction not affected); bait and antibodies not told

With Cullin3 (from UniProt B5DF89 1-768) the binding was “binds”.
